# Measured values reported in PubChem BioAssay AID504467 (National Center for Advancing Translational Sciences (NCATS), 2011).
# Where “and” joins values, the source holds several entries; their conditions need not be identical. Equal entries are not always repeated. Hit rate of the full screen: of about 330,000 compounds, about 7,700 (2.3%) were called active. Inconclusive results, whose numbers are uncertain, are shown with a selection of clear calls. Calls come from the whole dose curve; as a rule, active = well fitted inhibition curve with a large enough effect; inconclusive = small, poorly fitted or top-dose-only effect, or effect the other way; inactive = flat fitted curve, though single readings scatter. Where the call is inconclusive, the potency comes from a doubtful curve fit.
# Assay: qHTS screen for small molecules that inhibit ELG1-dependent DNA repair in human embryonic kidney (HEK293T) cells expressing luciferase-tagged ELG1; note: nearly all actives have a fitted effect of over 55% in size
# Details: HEK293T ELG1-luciferase reporter, luminescence, 16 h, DNA damage induced by 5-fluorouridine; series mostly up to 46.1 µM
# Method in brief: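 Luminescence from the luciferase reporter, measured 30 min after ONE-Glo reagent at room temperature, was the read-out. Beforehand, 2,000 cells per well were exposed for 16 hr at 37 °C to 5-fluorouridine together with compound or vehicle.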
# Potency is the fitted concentration of half-maximal effect.
row,SMILES,Potency
1,CCc1nn(CCCC(=O)NCc2ccccc2Br)c(=O)c2cc3occc3n12,inactive
2,Cn1c(NC(=O)c2ccccc2F)cc(=O)n(C)c1=O,"inconclusive: 18.4 µM [activator, partial curve, poor fit]"
3,C=CCN1C(=O)C2C3CC(=O)C(c4ccccc43)C2C1=O (centres undefined),inactive
4,Cc1csc2c(N3CCCCC3)ncnc12,"inconclusive: 13 µM [activator, partial curve]"
5,Cc1ccccc1OCCN1C(=O)c2ccccc2C1=O,"inconclusive: 18.4 µM [activator, partial curve]"
6,Cc1cccc(NC(=S)N(CCN2CCOCC2)Cc2cc3cc4c(cc3[nH]c2=O)OCO4)c1,"inconclusive: 9.2 µM [inhibitor, partial curve]"
7,O=C(Nc1ccc2nn(-c3ccccc3)nc2c1)c1cccnc1,"inconclusive: 3.26 µM [activator, partial curve, poor fit]"
8,O=C(NCC(c1ccco1)N1CCCC1)c1ccc(Cl)c(S(=O)(=O)N2CCc3ccccc32)c1 (centres undefined),"inconclusive: 2.06 µM [inhibitor, single point]"
9,COc1cccc(C(=O)NCCS(=O)(=O)N2CCCC2)c1,"inconclusive: 23.1 µM [activator, single point]"
10,COCCCN(C(=O)Cc1coc2cc(C)c(C)cc12)c1c(N)n(Cc2ccccc2)c(=O)[nH]c1=O,inactive
11,Cc1ccc(-c2nc3c(Cl)cc(Cl)cc3c(=O)n2O)cc1,"inconclusive: 29.1 µM [inhibitor, single point]"
12,O=C1/C(=C/c2ccccn2)COc2ccccc21,"inconclusive: 0.73 µM [inhibitor, partial curve, poor fit]"
13,CC(CC(=O)OCC(=O)NCc1ccc(Cl)cc1)c1ccccc1 (centres undefined),inactive
14,Cc1cc(C)c2c(NC(=S)NC(=O)c3ccccc3)n[nH]c2n1,inactive
15,COc1ccc(C(=O)Nc2ccccc2C(=O)O)cc1Cl,"inconclusive: 23.1 µM [activator, partial curve]"
16,c1ccc2[nH]c(-c3ccnc4ccccc34)nc2c1,"inconclusive: 16.4 µM [activator, partial curve] and inconclusive: 18.4 µM [activator, partial curve]"
17,CCOC(=O)N1CCN(c2cc(C)c([N+](=O)[O-])cc2F)CC1,"inconclusive: 29.1 µM [inhibitor, single point]"
18,COC(=O)[C@]1(C)N[C@H](CN(C)C(=O)Nc2ccc(OC)cc2)[C@@H]2C(=O)N(Cc3ccccc3)C(=O)[C@@H]21,inactive
19,CCOc1ccc(CNS(=O)(=O)c2c(C)nc3sccn3c2=O)cc1OC,inactive
20,CCOc1ccc(NC(=O)CN(C)C(=O)c2ccccc2Cc2ccccc2)cc1OCC,"inconclusive: 20.6 µM [inhibitor, single point]"
21,O=C(CSc1cn(CCNC(=O)c2cccs2)c2ccccc12)NCc1ccccc1,"inconclusive: 23.1 µM [inhibitor, single point]"
22,CN(C)c1cccc(C(=O)N/N=C/c2ccccc2F)c1,"inconclusive: 1.3 µM [activator, partial curve]"

row,SMILES,Potency
1,COc1cc2nc(SCC(=O)NCc3ccco3)n(Cc3ccc(Cl)cc3)c(=O)c2cc1OC,inactive
2,CN(CC(=O)Nc1ccc2c(c1)OCCO2)S(=O)(=O)c1ccc(F)cc1,"inconclusive: 23.1 µM [activator, partial curve]"
3,COCCn1c(SCC(=O)c2ccc3c(c2)OCCO3)nnc1C(C)C,"inconclusive: 16.4 µM [activator, single point]"
4,COc1ccc(N(CC(=O)Nc2ccccc2OC)S(=O)(=O)c2ccc(NC(C)=O)cc2)cc1,"inconclusive: 8.2 µM [inhibitor, partial curve]"
5,COc1cccc(CC2(CO)CCCN(Cc3cnn(-c4ccccc4)c3)C2)c1 (centres undefined),inactive
6,Cc1ccc(NC(=O)O/N=C/c2ccc(F)cc2)cc1,"inconclusive: 20.6 µM [activator, partial curve]"
7,CCn1c2ccccc2c2cc(NC(=O)CSc3nnc(-c4ccc(OC)c(OC)c4)n3N)ccc21,"inconclusive: 20.6 µM [inhibitor, single point]"
8,CCCCN(CC)C(=O)c1oc2ccc(S(=O)(=O)N3CCCC3)cc2c1C,"inconclusive: 20.6 µM [inhibitor, single point]"
9,O=C1NC(=NCc2ccccc2)S/C1=C/c1ccc(O)cc1,"inconclusive: 9.2 µM [inhibitor, partial curve]"
10,COc1ccc(NC(=O)CCNS(=O)(=O)c2cccc3nonc23)cc1,inactive
11,O=C(COC(=O)CNS(=O)(=O)c1ccc(Br)cc1Cl)NC1CC1,"inconclusive: 29.1 µM [activator, single point]"
12,Cc1cccn2c(=O)c3cc(C(=O)NC(C)c4ccccc4)c(=N)n(CCCn4ccnc4)c3nc12 (centres undefined),inactive
13,O=C(CSC(=S)N1CCOCC1)c1cc2ccccc2oc1=O,"inconclusive: 13 µM [activator, partial curve]"
14,Cc1ccccc1OCC(=O)NC(=S)Nc1cccc2cc(O)ccc12,inactive
15,CC(OC(=O)c1ccc(S(=O)(=O)N2CCCCC2)cc1)C(=O)Nc1ccc(C(N)=O)cc1 (centres undefined),"inconclusive: 14.6 µM [activator, partial curve, poor fit]"
16,COc1ccc(N2CCN(C(CNS(=O)(=O)c3ccc4c(c3)OCCO4)c3ccco3)CC2)cc1 (centres undefined),active: 14.6 µM
17,Cc1cc(C(=O)CSc2nc(N)cc(=O)[nH]2)c(C)n1CC1CCCO1 (centres undefined),inactive
18,O=C(CSc1nnc(-c2ccccn2)o1)Nc1cccc(Cl)c1,"inconclusive: 16.4 µM [activator, partial curve]"
19,CCCCOc1ccc(C)cc1CN(CCO)CCO,inactive
20,O=c1c(-c2ccco2)[n+]([O-])c2ccccc2n1OCc1ccccc1,"inconclusive: 29.1 µM [inhibitor, single point]"
21,COc1ccc(-c2nnc(NC(=O)CSc3ccc(C)cc3)s2)cc1OC,inactive
22,CCOC(=O)C1(CCc2ccccc2)CCN(Cc2nccn2CC)CC1,"inconclusive: 14.6 µM [inhibitor, partial curve]"

# In the list so far, 2 contain bromine:
row,SMILES,Potency
1,CCc1nn(CCCC(=O)NCc2ccccc2Br)c(=O)c2cc3occc3n12,inactive
11,O=C(COC(=O)CNS(=O)(=O)c1ccc(Br)cc1Cl)NC1CC1,"inconclusive: 29.1 µM [activator, single point]"
